Reference: paper PMC5543739
No constants are given. Whether binding was seen depends on the method and setting. In cells and extracts the contact can be indirect.

Biological target: T1, NFATc2 (nuclear factor of activated T-cells c2), endogenous in PaTu 8988t cells (human (endogenous in PaTu 8988t)), Q13469
T1 chain: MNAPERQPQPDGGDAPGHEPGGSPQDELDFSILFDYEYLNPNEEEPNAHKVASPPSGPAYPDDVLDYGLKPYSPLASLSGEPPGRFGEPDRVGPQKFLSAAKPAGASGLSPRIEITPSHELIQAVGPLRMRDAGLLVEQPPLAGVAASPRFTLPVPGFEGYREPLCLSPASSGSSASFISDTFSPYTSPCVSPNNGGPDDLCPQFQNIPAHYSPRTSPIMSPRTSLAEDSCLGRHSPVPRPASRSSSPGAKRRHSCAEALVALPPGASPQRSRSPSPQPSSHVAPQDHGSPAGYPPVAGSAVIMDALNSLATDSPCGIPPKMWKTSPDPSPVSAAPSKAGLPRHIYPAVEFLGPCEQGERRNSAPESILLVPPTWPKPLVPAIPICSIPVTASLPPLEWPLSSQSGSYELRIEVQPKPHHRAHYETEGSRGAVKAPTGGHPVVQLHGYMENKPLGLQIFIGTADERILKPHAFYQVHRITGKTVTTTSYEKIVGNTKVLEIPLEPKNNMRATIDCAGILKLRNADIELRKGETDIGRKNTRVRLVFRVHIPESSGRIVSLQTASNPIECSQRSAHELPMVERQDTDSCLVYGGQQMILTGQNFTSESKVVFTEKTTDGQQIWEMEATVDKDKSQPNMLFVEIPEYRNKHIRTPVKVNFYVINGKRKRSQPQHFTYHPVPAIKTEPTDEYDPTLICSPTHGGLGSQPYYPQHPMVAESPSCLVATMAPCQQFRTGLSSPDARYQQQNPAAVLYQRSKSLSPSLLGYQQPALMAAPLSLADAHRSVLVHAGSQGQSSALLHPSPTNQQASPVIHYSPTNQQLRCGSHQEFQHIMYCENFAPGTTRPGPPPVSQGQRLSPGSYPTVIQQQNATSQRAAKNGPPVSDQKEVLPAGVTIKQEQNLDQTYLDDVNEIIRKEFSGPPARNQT
Experiment: co-IP; 500 ug PaTu 8988t lysate immunoprecipitated with anti-NFATc2 antibody and protein G or A agarose, blotted for Sp1 and MEF 2A; cells serum-free 3 h, then 0.5 uM Ionomycin for 0, 10, 60 min
Settings: remark: other sources report otherwise

B1: MEF 2A (myocyte enhancer factor 2A), endogenous in PaTu 8988t cells, Q02078 1-507 (protein)
chain: MGRKKIQITRIMDERNRQVTFTKRKFGLMKKAYELSVLCDCEIALIIFNSSNKLFQYASTDMDKVLLKYTEYNEPHESRTNSDIVEALNKKEHRGCDSPDPDTSYVLTPHTEEKYKKINEEFDNMMRNHKIAPGLPPQNFSMSVTVPVTSPNALSYTNPGSSLVSPSLAASSTLTDSSMLSPPQTTLHRNVSPGAPQRPPSTGNAGGMLSTTDLTVPNGAGSSPVGNGFVNSRASPNLIGATGANSLGKVMPTKSPPPPGGGNLGMNSRKPDLRVVIPPSSKGMMPPLSEEEELELNTQRISSSQATQPLATPVVSVTTPSLPPQGLVYSAMPTAYNTDYSLTSADLSALQGFNSPGMLSLGQVSAWQQHHLGQAALSSLVAGGQLSQGSNLSINTNQNISIKSEPISPPRDRMTPSGFQQQQQQQQQQQPPPPPQPQPQPPQPQPRQEMGRSPVDSLSSSSSSYDGSDREDPRGDFHSPIVLGRPPNTEDRESPSVKRMRMDAWVT
With B1 the binding was “no binding”.
